Record: PubChem BioAssay AID1224830 (NIAID, 2016)
In all, the deposit lists about 18,000 reagents; shown is a part drawn at random. About 2,900 of them (16%) were called active. 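Calls are made per well; low scores hint the gene aids the LPS response, high scores that it dampens it.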 Repeated entries: four replicate wells of each siRNA pool.

Screen: 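Genes whose knock-down alters the TNF-alpha reporter response to LPS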 (primary screen)
Cell system: human THP-1 monocytic leukaemia cells, TNF dual-luciferase reporter clone, PMA-differentiated to macrophage-like cells
Reagent: siRNA pool against human genes, 50 nM
Time to read-out: LPS for 4 h, given about 3 days after siRNA transfection
Conditions: bacterial LPS (TLR4 ligand), 10 ng/ml
Measured: 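TNF firefly reporter luminescence divided by renilla, normalised to the plate median, then turned into a robust z-score for each replicate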
Scale: TNF reporter robust z-score: higher = stronger TNF reporter response to LPS
Rule for the call: 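Each well counts as active if its z-score is over 2.8 or under -1.5; controls are left without a call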

AMPD1: TNF reporter robust z-score = -1.15; outcome = inactive
AMPD1: TNF reporter robust z-score = -0.76; outcome = inactive
AMPD1: TNF reporter robust z-score = -1.27; outcome = inactive
AMPD1: TNF reporter robust z-score = -0.8; outcome = inactive
KLHL31: TNF reporter robust z-score = -0.44; outcome = inactive
KLHL31: TNF reporter robust z-score = 0.9; outcome = inactive
KLHL31: TNF reporter robust z-score = -0.32; outcome = inactive
KLHL31: TNF reporter robust z-score = -0.13; outcome = inactive

Additional records:
ZNF609: TNF reporter robust z-score = -0.84; outcome = inactive
ZNF609: TNF reporter robust z-score = -0.98; outcome = inactive
ZNF609: TNF reporter robust z-score = -0.73; outcome = inactive
ZNF609: TNF reporter robust z-score = -1.17; outcome = inactive
TNFSF12-TNFSF13: TNF reporter robust z-score = 0.14; outcome = inactive
TNFSF12-TNFSF13: TNF reporter robust z-score = 0.07; outcome = inactive
TNFSF12-TNFSF13: TNF reporter robust z-score = -0.64; outcome = inactive
TNFSF12-TNFSF13: TNF reporter robust z-score = -0.15; outcome = inactive
RAVER2: TNF reporter robust z-score = 0.83; outcome = inactive
RAVER2: TNF reporter robust z-score = 1.91; outcome = inactive
RAVER2: TNF reporter robust z-score = 0; outcome = inactive
RAVER2: TNF reporter robust z-score = 1.31; outcome = inactive
